Source: PubChem BioAssay AID2685 (National Center for Advancing Translational Sciences (NCATS), 2010)
Some of the results follow. Shown are side measurements of this screen, not its main read-out; they come without a call. Compounds called inactive in the main read-out are mostly missing here. Words in brackets tell the shape of the fitted curve; partial curves, single points and poor fits give uncertain potencies.

Assay: qHTS Assay for Lipid Storage Modulators in Drosophila S3 Cells;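 on cell number change: cells counted by Cell Tracker Red CMTPX staining in the red channel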
Settings: BODIPY lipid droplet fluorescence, 18-24 h; for cell number change: measured here: cell count max response, cells fed with added oleic acid
How it was run: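 Drosophila S3 cells loaded with oleic acid (400 uM, as added) and compounds at several concentrations; lipid droplets imaged by 488-nm laser-scanning cytometry, 500–530 nm intensity and object ratio to cell channel. Percent activity normalized to 20 uM Triacsin C.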

[1] = measured here: lipid fluorescence (Fed channel) AC50, cells fed with added oleic acid
[2] = measured here: cell number channel AC50, cells fed with added oleic acid

`CCOC(=O)N1CCN(C(=O)C2CCN(S(=O)(=O)c3ccc(OCC)cc3)CC2)CC1` showed a cell number change of 9.9%.

In the case of `CCOc1cc(/C=C2\SC(=NC)N(C)C2=O)cc(Cl)c1OC(C)=O`, the cell number change is reported as 26% and the AC50 [1] is reported as 29.1 µM [rising, single point].

For `COc1ccc(S(=O)(=O)Cc2ccc(C(=O)N3CCN(c4ccccn4)CC3)o2)cc1`, the AC50 [1] was 29.1 µM [rising, single point].

For `CCCN1CCC2(CC1)C(C#N)=C(N)Oc1c2sc2nc(C)cc(C)c12`, the cell number change was 32.9%, the AC50 [2] was 16.4 µM [rising, partial curve] and the AC50 [1] was 23.1 µM [rising, single point].

With `COc1ccc(-c2ccc(-c3noc(-c4ccccc4C)n3)c(OC)n2)cc1` the cell number change was 13.6% and the AC50 [1] was 2.06 µM [rising, partial curve].

In the case of `Cc1ccc(NC(=O)Cn2cccc2)cc1C`, the cell number change is reported as 18.7% and the AC50 [1] is reported as 23.1 µM [rising, single point].

With `O=C(N/N=C/c1ccc(OCc2ccccc2)cc1)c1ccncc1` the cell number change was 1.29% and the AC50 [1] was 3.26 µM [rising, single point].

With `COc1ccc(NC(=O)CN2C(=O)NC(C)(c3ccc(C)cc3)C2=O)cn1` (stereo not drawn) the cell number change was -3.88% and the AC50 [1] was 10.3 µM [falling, partial curve].

With `COc1ccccc1N(CC(=O)N/N=C/c1ccc(OCC(=O)NCc2ccco2)cc1)S(=O)(=O)c1ccc(C)cc1` the cell number change was 29.4% and the AC50 [1] was 3.66 µM [rising, full curve].

In the case of `O=C(N/N=C/c1ccco1)c1cccc(NC(=O)c2ccccc2Cl)c1`, the cell number change is reported as 11.7% and the AC50 [1] is reported as 4.11 µM [rising, partial curve, poor fit].

In the case of `CCOc1ccc2nc(NC(=O)c3cnc(C)cn3)sc2c1`, the cell number change is reported as 30.7%, the AC50 [2] is reported as 2.06 µM [rising, partial curve] and the AC50 [1] is reported as 6.51 µM [rising, partial curve].

With `COc1ccc(S(=O)(=O)NCc2ccccc2)cc1` the cell number change was 14% and the AC50 [1] was 29.1 µM [falling, single point].

In the case of `CC(=O)c1cc(NC(=O)c2cccc(C(F)(F)F)c2)c(=O)oc1C`, the cell number change is reported as -73.6%, the AC50 [2] is reported as 32.6 µM [falling, single point] and the AC50 [1] is reported as 7.31 µM [falling, partial curve].

Compound `CCOCCCNC(=O)c1ccc(NC(C)=O)cc1` has a cell number change of 21.7%.

For `Cc1ccc(NC(=O)CSCC(=O)N(C)Cc2ccc(Cl)c(Cl)c2)cc1`, the cell number change was -52.7%, the AC50 [2] was 0.00517 µM [falling, full curve, poor fit] and the AC50 [1] was 0.00517 µM [falling, full curve, poor fit].

With `COc1cc(/C=N/n2c(COc3ccccc3)n[nH]c2=S)cc(Br)c1O` the cell number change was 10.3% and the AC50 [1] was 2.59 µM [rising, partial curve].

With `CCCCn1c(N)c(N(CC(C)C)C(=O)c2c(-c3ccccc3)noc2C)c(=O)[nH]c1=O` the cell number change was 16.5% and the AC50 [1] was 0.164 µM [falling, full curve, poor fit].

For `Cc1ccc(C(=O)Nc2nc3nc(-c4ccccc4)cc(=O)n3[nH]2)cc1`, the cell number change was 10.1% and the AC50 [1] was 2.06 µM [falling, partial curve, poor fit].

In the case of `CCN(CC)c1ccc(/C=N/N=C(c2ccccc2)c2ccccc2)c(O)c1`, the cell number change is reported as -17.2% and the AC50 [1] is reported as 2.31 µM [rising, partial curve].

In the case of `O=C1c2ccccc2C(=O)N1CCCCSc1nnc(-c2ccc(OC(F)F)cc2)o1`, the cell number change is reported as -4.1% and the AC50 [1] is reported as 6.51 µM [rising, partial curve].

With `O=C(NCCCN1CCN(c2ccccc2F)CC1)Nc1ccccc1[N+](=O)[O-]` the cell number change was -4.73% and the AC50 [1] was 4.11 µM [falling, single point].

For `O=C(Nc1ccccc1)c1cccnc1N1CCCC1`, the cell number change was 14.5% and the AC50 [1] was 0.411 µM [falling, partial curve, poor fit].

For `Cc1nc2oc3ccc(F)cc3c(=O)c2cc1C(=O)NC(C)(C)C`, the AC50 [2] was 2.91 µM [falling, single point].

For `Cn1c(C(=O)N2CCC(C(N)=O)CC2)cc2c(=O)n(C)c3ccccc3c21`, the cell number change was -9.09% and the AC50 [1] was 0.731 µM [rising, single point].

In the case of `COCCN(C(=O)c1ccc(C)o1)c1c(N)n(CC(C)C)c(=O)[nH]c1=O`, the cell number change is reported as -49.7%, the AC50 [2] is reported as 0.92 µM [falling, full curve] and the AC50 [1] is reported as 0.92 µM [falling, full curve].

In the case of `CCOc1cc(C(=O)Nc2ccc(S(=O)(=O)N3CCCCC3)cc2)ccc1OCC(=O)N1CCOCC1`, the cell number change is reported as 45.4% and the AC50 [2] is reported as 11.6 µM [rising, single point].

With `Cc1nc2scc(C)n2c(=O)c1S(=O)(=O)Nc1ccc(OC(F)(F)F)cc1` the cell number change was -41.2%, the AC50 [2] was 23.1 µM [falling, single point] and the AC50 [1] was 23.1 µM [falling, single point].

`CCc1cccc(NC(=O)CCc2c(C)nn(-c3ccc(N4CCOCC4)nn3)c2C)c1` showed a cell number change of -3.54%.

With `COc1ccccc1C(=O)Oc1ccc(C(C)(C)C)cc1` the AC50 [2] was 0.13 µM [falling, full curve] and the AC50 [1] was 0.164 µM [falling, full curve, poor fit].

For `N#Cc1ccc2ccn(CC(=O)NC3CCCCCC3)c2c1`, the cell number change was 19.6% and the AC50 [2] was 0.366 µM [rising, single point].

In the case of `O=C(NCC(F)(F)F)N1CCOCC1`, the cell number change is reported as 4.57%.

In the case of `CC(C)CC(C(=O)NC(=O)NCc1ccccc1)N1C(=O)c2ccccc2C1=O` (stereo not drawn), the cell number change is reported as 4.09% and the AC50 [1] is reported as 4.61 µM [falling, partial curve, poor fit].

In the case of `O=C(CN1C(=O)COc2ccccc21)N1CCN(C2CCCCC2)CC1`, the cell number change is reported as 12% and the AC50 [1] is reported as 3.66 µM [rising, partial curve].

For `COc1ccc(C(=O)N(C)C2CCCCC2)cc1OC1CCN(C(C)C)CC1`, the cell number change was 17.6%.

For `C=CCSc1nc2ccccc2c(=O)n1Cc1ccccc1`, the cell number change was 60.6% and the AC50 [2] was 29.1 µM [rising, single point].

For `O=C(O)COCC(=O)Nc1ccc(-n2nc(C(F)(F)F)cc2-c2cccs2)cc1`, the cell number change was -20.1%, the AC50 [2] was 0.184 µM [falling, full curve, poor fit] and the AC50 [1] was 4.61 µM [falling, partial curve, poor fit].

With `O=C(NC1CC2CCCC(C1)N2C(=O)Nc1ccccc1F)C1CC1` (stereo not drawn) the cell number change was 14.6%.
